Assay results published in PubChem BioAssay AID1671190 (National Center for Advancing Translational Sciences (NCATS), 2021).
Out of some 580,000 compounds screened, about 6,100 (1.1%) were called active. The shares of active, inactive and inconclusive entries below differ from those in the screen. Calls follow the shape of the dose curve; as a rule, active = well fitted inhibition curve with a large enough effect; inconclusive = small, poorly fitted or top-dose-only effect, or another doubt; inactive = no such curve, though single readings can be large or run the other way. Where the call is inconclusive, the potency comes from a doubtful curve fit.

By UniProt entry, the sequences of proteins in these tests, tags left out. Where a name states a change or a piece, a line headed by the entry shows the natural chain unless it says otherwise.
UniProt P18054: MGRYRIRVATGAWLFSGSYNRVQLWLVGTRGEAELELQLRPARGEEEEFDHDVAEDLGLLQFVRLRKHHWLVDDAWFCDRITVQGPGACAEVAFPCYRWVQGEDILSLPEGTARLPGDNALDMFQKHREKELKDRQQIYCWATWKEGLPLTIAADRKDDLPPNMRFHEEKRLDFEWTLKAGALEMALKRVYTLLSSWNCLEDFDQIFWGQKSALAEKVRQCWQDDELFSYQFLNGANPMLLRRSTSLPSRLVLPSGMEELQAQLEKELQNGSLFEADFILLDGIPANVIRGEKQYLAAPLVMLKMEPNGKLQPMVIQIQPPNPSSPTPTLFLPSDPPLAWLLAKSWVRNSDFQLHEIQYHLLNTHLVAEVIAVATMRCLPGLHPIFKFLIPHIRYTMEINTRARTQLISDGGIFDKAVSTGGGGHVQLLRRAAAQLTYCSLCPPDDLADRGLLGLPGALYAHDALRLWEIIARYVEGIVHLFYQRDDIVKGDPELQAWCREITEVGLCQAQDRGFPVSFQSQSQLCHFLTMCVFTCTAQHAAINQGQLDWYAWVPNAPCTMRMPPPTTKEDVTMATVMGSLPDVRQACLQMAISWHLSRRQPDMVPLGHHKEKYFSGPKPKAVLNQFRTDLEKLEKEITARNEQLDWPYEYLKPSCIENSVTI

molecular target: Polyunsaturated fatty acid lipoxygenase ALOX12 (Homo sapiens) (UniProt P18054); test: Primary qHTS assay for inhibitors of human arachidonate 12S-lipoxygenase (ALOX12): Round 2; details: purified 12hLO, xylenol orange hydroperoxide absorbance; activity change, negative = inhibition: at 108 µM (top of the series) unless noted
How it was run: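 Hydroperoxide product was detected by ferrous iron/xylenol orange as the 573 to 405 nm absorbance ratio. Arachidonic acid at 40 uM (final) was turned over for 30 min at room temperature by 150 nM human 12hLO, pH 7.0 Hepes buffer, after 15 min compound preincubation.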
% is scaled to controls: 0 for no effect and ±100 for the full control effect; potency is read from the fitted curve at half-maximal effect.

Structure (SMILES) | Potency | activity change, negative = inhibition
Cc1cc(C)cc(NC(=S)Nc2ccccn2)c1 | active: 6.31 µM | –
O=C(N/N=C\c1ccc(Sc2ccccn2)o1)c1cccc(F)c1 | inactive | –
COC(=O)CSc1[nH]c2ccc(F)cc2c1[N+](=O)[O-] | inconclusive: 141 µM [inhibitor, single point] | –
COc1ccc(-c2csc(C(NC(C)=O)c3cccc(F)c3)n2)cn1 (centres undefined) | inconclusive: 11.2 µM [inhibitor, full curve, poor fit] | –
Cc1ccc(S(=O)(=O)Nc2ccc3ccccc3c2)cc1 | inconclusive: 35.5 µM [inhibitor, partial curve, poor fit] | –
C=CCn1c(C)c(C(C)=O)c(N2CCN(c3ccccc3)CC2)nc1=S | inconclusive: 50.1 µM [inhibitor, single point] | –
COc1cccc(/C=C/C(=O)OCC(=O)N2CCN(c3ccccc3)CC2)c1 | inconclusive: 100 µM [inhibitor, partial curve, poor fit] | –
COc1cc(C(=O)Nc2nnc(CC(C)(C)C)s2)cc(OC)c1OC | inactive | –
CCCn1cnc2c(SCc3ccccc3F)nc(N)nc21 | inactive | –
c1cncc(-c2nnc3n2CCN(Cc2cccc4ccccc24)C3)c1 | – | inactive: 6.72% [at 6.33 µM]
CCOC(=O)c1c(C)[nH]c(N=Nc2ccc(OC)cc2)c1C | inconclusive: 39.8 µM [inhibitor, partial curve, poor fit] | –
COc1ccc(C(=O)Nc2ncc3c(n2)CC(c2ccco2)CC3=O)cc1 (centres undefined) | inconclusive: 22.4 µM [inhibitor, partial curve, poor fit] | –
CN(Cc1ccccc1)C(=O)C[C@@H]1CCNC[C@@H]1Cc1cc(-c2ccccc2)on1 | inactive | –
CCc1ccc2occ(CC(=O)NCc3ccccc3)c2c1 | inconclusive: 0.631 µM [inhibitor, full curve, poor fit] | –
Cc1ccc2c(C(=O)CCl)c(C)[nH]c2c1 | inconclusive: 56.2 µM [inhibitor, partial curve, poor fit] | –
CN1C[C@@H](N)C[C@H]1c1nc(-c2ccc3c(c2)OCO3)no1 | inactive | –
COc1cc([C@@H]2CC(=O)C3=C(C2)Nc2[nH][nH]c(=O)c2[C@H]3c2ccc(N(C)C)cc2)cc(OC)c1OC | inconclusive: 35.5 µM [inhibitor, partial curve, poor fit] | –
COc1cc(/C=C2\N=C(C)OC2=O)cc(OC)c1OC | inconclusive: 112 µM [inhibitor, single point] | –
Cc1ccc(CN2CC(C(=O)NCCC3=CCCCC3)CC2=O)cc1 (centres undefined) | inconclusive: 89.1 µM [inhibitor, single point] | –
S=C1NC2=C(CCC/C2=C\c2ccc(Cl)cc2)C(c2ccc(Cl)cc2)N1 (centres undefined) | active: 25.1 µM | –
O=C(Cc1cccs1)N1CCN(c2nc(-c3ccc(Cl)cc3)cs2)CC1 | inactive | –
Cc1cc(C)c2c(=O)cc(C(=O)Nc3cccnc3)oc2c1 | inactive | –
COCCCn1cnn2c(=O)c3ccccc3nc2c1=O | inactive | –

Structure (SMILES) | Potency | activity change, negative = inhibition
NC(CO)c1ccc2ccccc2c1 (centres undefined) | inconclusive: 0.224 µM [inhibitor, full curve, poor fit] | –
CCNC(=O)NC[C@@H]1C=C(C)[C@H](Cc2nnc(-c3ccccc3F)o2)C[C@H]1C(C)C | inconclusive: 12.6 µM [inhibitor, partial curve, poor fit] | –
CCOC(=O)C1CCN(Cc2ccc(C(=O)OC)cc2)CC1 | inconclusive: 1.58 µM [inhibitor, full curve, poor fit] | –
COc1ccc(C=C(C#N)c2ccc(OC)cc2)cc1 | inactive | –
S=c1n(/N=C/c2ccc(Br)cc2)cnn1Cc1ccccc1Cl | inconclusive: 31.6 µM [inhibitor, partial curve, poor fit] | –
Nc1c(S(=O)(=O)c2ccccc2)c2nc3ccccc3nc2n1Cc1ccco1 | inconclusive: 35.5 µM [inhibitor, partial curve, poor fit] | –
O=C(c1ccc2nc(-c3ccco3)c(-c3ccco3)nc2c1)N1CCN(c2ncccn2)CC1 | inconclusive: 2 µM [inhibitor, full curve] | –
COC(=O)c1c(-c2cccnc2)csc1NC(=O)c1cc(C)on1 | inconclusive: 39.8 µM [inhibitor, partial curve] | –
CCn1c(O)c(N=NC(=O)c2cccs2)c2ccccc21 | inactive | –
COCCCN1CC(=O)N2C(c3cccc(OC)c3)c3[nH]c4ccccc4c3C[C@H]2C1=O (some centres undefined) | inconclusive: 31.6 µM [inhibitor, single point] | –
CCCCC(=O)Nc1sc2c(c1C(N)=O)CCC2 | inconclusive: 44.7 µM [inhibitor, partial curve, poor fit] | –
CN1C[C@@H]2C(c3ccc(Cl)nc3)C3(c4ccc(C#N)cc4)CC2(C3)[C@H]1c1ccccc1 (some centres undefined) | inconclusive: 25.1 µM [inhibitor, partial curve] | –
COc1cccc(OC)c1C(=O)Nc1c(NC2CCCC2)c2ccccc2oc1=O | inactive | –
COc1ccc(-c2nc3cc(C)ccc3cc2CN(C(=O)c2cccs2)C2CC2)cc1OC | inconclusive: 79.4 µM [inhibitor, single point] | –
CC1=CC(=C(C#N)C#N)C=C(C)N1CCN1CCN(C(=O)Nc2ccc(Cl)c(Cl)c2)CC1 | inconclusive: 50.1 µM [inhibitor, partial curve, poor fit] | –
CCc1c(C(=O)N/N=C/c2ccco2)nnn1-c1nonc1N | inconclusive: 50.1 µM [inhibitor, partial curve, poor fit] | –
CCOC(=O)c1c(NC(=O)COc2cccc3c2CCN(CC)C3=O)sc2c1CCC2 | inactive | –
CC(OC(=O)c1ccc(NC(=O)CC#N)cc1)C(=O)NCCC1=CCCCC1 (centres undefined) | inconclusive: 126 µM [inhibitor, single point] | –
COC(=O)[C@@]12CCCN1[C@H](c1ccc(-c3ccc(OC)cc3)c(OC)c1)[C@H]1C(=O)N(C)C(=O)[C@H]12 | inconclusive: 0.398 µM [inhibitor, full curve, poor fit] | –
Clc1ccc(-n2nnnc2-c2cnc3ccc(Cl)cc3c2-c2ccccc2)cc1 | inconclusive: 100 µM [inhibitor, partial curve, poor fit] | –
Cc1c2c(nc3nc4ccccc4n13)CC(C)(C)CC2=O | inactive | –
Cn1nnnc1SCCCNCc1cc(Cl)ccc1OCc1ccccc1 | inactive | –
CCCCCCC(=O)Nc1c2c(nc3ccccc13)N(C)CC2 | inactive | –

Structure (SMILES) | Potency | activity change, negative = inhibition
O=C(O)C1CSC(c2ccc(O)c([N+](=O)[O-])c2)N1 (centres undefined) | inconclusive: 50.1 µM [inhibitor, partial curve, poor fit] | –
CN(C)c1ncc2nc(CCc3ccccc3)c(=O)n(CCc3ccccc3)c2n1 | inconclusive: 35.5 µM [inhibitor, single point] | –
CC(C)NC(=O)Nc1cccc2c1O[C@H](CN(C)S(=O)(=O)c1ccccc1)[C@@H](C)CN([C@H](C)CO)C2=O | inactive | –
COc1cc2c(cc1NC(=O)CCCOc1ccccc1)oc1ccccc12 | inactive | –
COCCCN1CCC(CN)C1 (centres undefined) | inconclusive: 0.316 µM [inhibitor, full curve, poor fit] | –
CCCOC(=O)c1ccc(O)c(OC)c1 | inactive | –
CCc1c(C)sc(NC(=O)C2CC(c3c(F)cccc3Cl)=NO2)c1C#N (centres undefined) | inconclusive: 25.1 µM [inhibitor, single point] | –
CC1CCN(C(c2cccs2)c2nnnn2Cc2ccccc2)CC1 (centres undefined) | inconclusive: 112 µM [inhibitor, single point] | –
CCCn1c(SCc2cc(=O)oc3c(C)c(C)ccc23)n[nH]c1=O | inconclusive: 50.1 µM [inhibitor, partial curve, poor fit] | –
Clc1ccc(-c2csc(N3CCSCC3)n2)cc1 | inactive | –
CN(C)C(=O)CSc1ncnc2scc(-c3ccccc3)c12 | inactive | –
CC(NC(=O)c1noc(-c2ccc3c(c2)OCO3)n1)c1ccc(F)cc1 (centres undefined) | inactive | –
COc1ccc(OCC(=O)N/N=C/C(C)=C/c2ccco2)c(Br)c1 | inconclusive: 89.1 µM [inhibitor, partial curve, poor fit] | –
Cc1ccc(Cc2c[nH]c(=S)s2)cc1 | active: 35.5 µM | –
CCC1(c2ccccc2)NC(=O)N(CC(=O)Nc2ccc(S(=O)(=O)N3CC(C)CC(C)C3)cc2)C1=O (centres undefined) | inconclusive: 89.1 µM [inhibitor, single point] | –
COc1ccc(S(=O)(=O)N2CCN(C(=O)C3CC3)CC2)cc1Br | inconclusive: 126 µM [inhibitor, partial curve, poor fit] | –
Cc1ccc(N=Cc2c(O)n(-c3ccc4c(c3)OCO4)c(=O)c3ccccc23)cc1 | inconclusive: 44.7 µM [inhibitor, single point] | –
O=C(NC(=S)Nc1ccc(S(=O)(=O)N2CCCCC2)cc1)c1cccs1 | inconclusive: 15.8 µM [inhibitor, partial curve, poor fit] | –
O=C(O)Cn1cc(C(C(=O)O)N2CCN(c3ccc(F)cc3)CC2)c2ccc(F)cc21 (centres undefined) | inconclusive: 25.1 µM [inhibitor, partial curve, poor fit] | –
NC(=O)c1ccccc1NC(=O)CSc1nc2c(c(=O)[nH]1)CCCC2 | inactive | –
Cc1cc(=O)oc2cc(NC(=O)Cc3ccccc3F)ccc12 | active: 39.8 µM | –
CCc1ccc(NC(=O)/C(C#N)=C/c2cn(CC(=O)O)c3ccccc23)cc1 | inconclusive: 3.98 µM [inhibitor, full curve, poor fit] | –
Nc1ccc(S(=O)(=O)O)c2cccc(S(=O)(=O)O)c12 | inconclusive: 39.8 µM [inhibitor, single point] | –

Single entries from the list.
Potency, Clc1ccc(-c2csc(N3CCSCC3)n2)cc1 is entered as inactive
Potency, O=C(NC(=S)Nc1ccc(S(=O)(=O)N2CCCCC2)cc1)c1cccs1 is entered as inconclusive: 15.8 µM [inhibitor, partial curve, poor fit]
Potency, Cc1cc(=O)oc2cc(NC(=O)Cc3ccccc3F)ccc12 is entered as active: 39.8 µM
Potency, CCc1ccc(NC(=O)/C(C#N)=C/c2cn(CC(=O)O)c3ccccc23)cc1 is entered as inconclusive: 3.98 µM [inhibitor, full curve, poor fit]
Potency, COCCCN1CCC(CN)C1 (centres undefined) is entered as inconclusive: 0.316 µM [inhibitor, full curve, poor fit]
